The supplement of paper PMC5949888
Most values lie at the floor of the assay. Slopes are relative: functional sequences can read slightly below zero.

Each substance was assayed on Saccharomyces cerevisiae PS128 hsf1 delta, HSF1(1-493) fusion (assay: growth estimate (transactivation domain function in HSF1 fusion, heat-shock survival) (a.u. (slope of normalised read count over time)); higher = stronger growth at 37°C, i.e. more transactivation activity). Conditions: library: random library.
Experimental: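 Random 60-nt DNA library encoding peptides of up to 20 aa, fused to the C-terminus of yeast HSF1 residues 1-493 (C-terminal TAD deleted) and expressed from the native HSF1 promoter on a CEN plasmid in hsf1-deleted S. cerevisiae PS128. Cells were selected at 37°C on -trp 5-FOA plates for 0, 2, 4, 6 and 8 days and amplicons were sequenced. Growth estimate is the slope of a robust linear fit of total-sum-normalised read counts (normalised to the first time point) over time, using at least 2 replicates. Sequences are classed functional (TAD activity) above a threshold of -0.13, set from stop-codon control sequences.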
In the case of TMV, the growth estimate is reported as < -0.25.
For MGIFTFLYSEEPRT, the growth estimate was -0.245.
For SPGMETVARLWRDPVHGGAS, the growth estimate was < -0.25.
RAIILVQVVTALPSLLKAHN was tested, and the growth estimate was < -0.25.
For TWP, the growth estimate was < -0.25.
With GMQLKADHWHGLITF the growth estimate was < -0.25.
WDFPLKHRL was tested, and the growth estimate was < -0.25.
For LPRLKMTGGSSANRPVPSSF, the growth estimate was < -0.25.
With GFDTKSGTS the growth estimate was < -0.25.
For YYANPILDRVRRFGYPHSRC, the growth estimate was < -0.25.
In the case of SSQWLGHHPSLPNVVLNDLR, the growth estimate is reported as < -0.25.
For FGKIT, the growth estimate was < -0.25.
For SCTPRGCKLHVFDSLHL, the growth estimate was < -0.25.
With CTKVS the growth estimate was < -0.25.
With IYS the growth estimate was < -0.25.
For PTRTAPSWNIVTGGRSILSP, the growth estimate was < -0.25.
SSSNFLEGCDRDPVLDVSVR was tested, and the growth estimate was < -0.25.
For PTGRA, the growth estimate was < -0.25.
For DQAALVYCHQGTSLYPVCLC, the growth estimate was < -0.25.
With ATLRHSRSETTADRPHQPGM the growth estimate was < -0.25.
With RYYDEWVGEAHLYWSPQRHR the growth estimate was < -0.25.
AKGARIYRLKFKSV was tested, and the growth estimate was < -0.25.
With VSGGIKFTARWIGAGNRPSP the growth estimate was < -0.25.
In the case of LRLHSRPPVECECHRASLFR, the growth estimate is reported as < -0.25.
With GDIGQRAEGKPAWDGVGAVP the growth estimate was < -0.25.
With KRKIWHHSTPSGA the growth estimate was < -0.25.
With SLRYGGVHCIISGGQVPRIG the growth estimate was < -0.25.
For AGMNNDLESALYATGQV, the growth estimate was < -0.25.
GEGDESR was tested, and the growth estimate was < -0.25.
In the case of PLAGSSRTNVSATALA, the growth estimate is reported as < -0.25.
With ERVEKIIGPSCKLYAICRLA the growth estimate was < -0.25.
In the case of IYKRRCSGQ, the growth estimate is reported as < -0.25.
In the case of GCT, the growth estimate is reported as < -0.25.
In the case of LLLSSVGSAAVRIEISEHRK, the growth estimate is reported as < -0.25.
For IWYLIMTCTVVLRLVKCYRV, the growth estimate was < -0.25.
With VIRCFFSRLRPR the growth estimate was < -0.25.
With LTAITRSSGNHSVCTTASEV the growth estimate was < -0.25.
In the case of TGLLSAQRIDLTAS, the growth estimate is reported as < -0.25.
In the case of DVSLLPEQARCGTQNL, the growth estimate is reported as < -0.25.
In the case of PKRTSHLRNAWQSPDVPI, the growth estimate is reported as < -0.25.
Work on ERTSLAAYGSISSPCDGRV yielded a growth estimate of -0.0254.
For QIRQFAGFSLSDYLTSF, the growth estimate was < -0.25.
With WTS the growth estimate was < -0.25.
With SVMF the growth estimate was < -0.25.
For RFGQAMKCRE, the growth estimate was < -0.25.
With HVGKFAGLEN the growth estimate was < -0.25.
For GSRLPKL, the growth estimate was -0.221.
For STDIESVATVRLSGQAVHSG, the growth estimate was < -0.25.
In the case of VNGRACMASWESRFPVYDLP, the growth estimate is reported as -0.245.
ASTRVSLVGKAFLGLQRSQG was tested, and the growth estimate was < -0.25.
With KTRGPHFHRP the growth estimate was < -0.25.
In the case of LRKNCCPSDLASSRA, the growth estimate is reported as < -0.25.
In the case of FPTSQRETRAYGSRSMATPL, the growth estimate is reported as < -0.25.
For NGDRIWGGCRNSAITVVQGT, the growth estimate was < -0.25.
For GVKLGGVPPLRRTDRRYLGS, the growth estimate was < -0.25.
SPDC was tested, and the growth estimate was < -0.25.
With NLVVKICSESRAFSVISRPR the growth estimate was < -0.25.
For GRNIDFRIYASGLVKGGFKE, the growth estimate was < -0.25.
YGRHTWGHASIDMK was tested, and the growth estimate was < -0.25.
LHRSRVRLFVADLPENRAFG was tested, and the growth estimate was < -0.25.
In the case of RASGSECGVHWTQDPTA, the growth estimate is reported as 0.604.
GSYPYST was tested, and the growth estimate was < -0.25.
RTLCRCNALASCYGAARATD was tested, and the growth estimate was < -0.25.
For KMVRPSAHQLALAICITALS, the growth estimate was < -0.25.
With RAQSHVEFKISLGIHTGQNR the growth estimate was < -0.25.
With PSMHLIQRYKCLSTIFADGG the growth estimate was 0.021.
In the case of CTPKIEAFAGSKNAQSVVWT, the growth estimate is reported as < -0.25.
With GMPRPQFLSSARDSKLPVRA the growth estimate was < -0.25.
For FRLYSSSAR, the growth estimate was < -0.25.
TMVHFRGP was tested, and the growth estimate was < -0.25.
For EKLKTLA, the growth estimate was < -0.25.
NRAVSFRVARKLRRV was tested, and the growth estimate was < -0.25.
NQL was tested, and the growth estimate was < -0.25.
MEGYGCKRAM was tested, and the growth estimate was -0.217.
